{"sequences": {"note": "By UniProt entry, the sequences of proteins in these tests, tags left out. Where a name states a change or a piece, a line headed by the entry shows the natural chain unless it says otherwise.", "UniProt Q8IDH9": "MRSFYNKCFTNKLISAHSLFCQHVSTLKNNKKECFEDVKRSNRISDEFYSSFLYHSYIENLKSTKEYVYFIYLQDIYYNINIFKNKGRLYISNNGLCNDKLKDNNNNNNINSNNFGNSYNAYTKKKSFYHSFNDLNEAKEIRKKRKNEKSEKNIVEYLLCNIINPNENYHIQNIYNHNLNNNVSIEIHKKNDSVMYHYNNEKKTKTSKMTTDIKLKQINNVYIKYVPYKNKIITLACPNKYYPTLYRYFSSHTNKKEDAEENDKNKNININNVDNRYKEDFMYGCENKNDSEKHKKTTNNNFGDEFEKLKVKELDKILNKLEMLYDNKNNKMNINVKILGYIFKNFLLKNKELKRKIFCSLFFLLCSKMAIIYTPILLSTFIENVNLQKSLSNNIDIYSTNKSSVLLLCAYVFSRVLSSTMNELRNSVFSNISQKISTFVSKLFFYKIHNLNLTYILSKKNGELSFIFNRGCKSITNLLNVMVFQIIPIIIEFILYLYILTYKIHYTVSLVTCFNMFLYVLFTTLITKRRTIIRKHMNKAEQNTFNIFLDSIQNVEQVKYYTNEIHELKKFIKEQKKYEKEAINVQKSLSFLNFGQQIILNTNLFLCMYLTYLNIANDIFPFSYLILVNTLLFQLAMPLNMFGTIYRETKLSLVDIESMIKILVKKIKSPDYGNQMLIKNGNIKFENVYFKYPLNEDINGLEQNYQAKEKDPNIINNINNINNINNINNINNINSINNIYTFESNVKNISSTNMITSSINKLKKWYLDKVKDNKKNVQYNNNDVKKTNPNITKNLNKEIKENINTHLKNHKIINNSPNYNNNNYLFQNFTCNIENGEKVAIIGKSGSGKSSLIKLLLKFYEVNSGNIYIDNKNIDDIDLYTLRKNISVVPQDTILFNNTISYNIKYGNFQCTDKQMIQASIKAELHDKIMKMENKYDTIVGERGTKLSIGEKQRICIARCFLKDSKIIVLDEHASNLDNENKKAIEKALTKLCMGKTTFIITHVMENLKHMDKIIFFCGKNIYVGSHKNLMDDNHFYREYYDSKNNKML"}, "source": "paper PMC11476691", "about": "“ATM1, an essential conserved transporter in Apicomplexa, bridges mitochondrial and cytosolic [Fe-S] biogenesis” (PLOS Pathogens, 2024)", "binders": {"B1": {"name": "PfIscU (protein, UniProt Q8IKT4 1-162)", "chain": "MKSKILCNLFKGKSCICLYTNCLNENNVNKCYYNLVRNYSDHVKDHFNKPRNVGSFDKNEKNIGTSIVGKASCGDVIKLQLKIENDVIKDARFMAFGCGSAIASSSYATELIKGKTIDEALKIKNNDIASHLSLPPVKIHCSLLAEDAIKHAIKNYREKVLT"}, "B2": {"name": "PfIscA2 (protein, UniProt O97297 1-404)", "chain": "MFNNFLNMYMCTLAEKLCKFKKNNFNNIHRNNNFYRDNNFYRDNNFYRDNNFYRDNNFYRDNNLYTNNNLYRDNNFYRDNNFYRDNNFYRDNNLYTNNNLYRDNNLYTNNNLYRDNNFYNITLRKFHFIQTISNNNFNFEIIKKYGDVINKIMFIHTQKKNKQERFMFNNKKYIKRKEYILNDLNEFISIIPHPEINNEITNNSNQKKNKDNKQNVLSTNQQIITNYNLNHKENVTSNLNFNNKEEDEKKLDKLLKKRNIKKRDIVTITEEAKEELKKIISINKKENNNNYNNMNTICSDNHNDMNTICNDKNILKLFFITKGCNGLTHSFNFISKKDIHKEDEIIYDDQNNILLVIDKNCILYVINTTLDYYKDDLTEKFIFKNPNITSICPCGTSFHFSKKK"}}, "biological_target": "PfATM1-CTD (P. falciparum) (UniProt Q8IDH9)", "assay": "pull-down; 6XHis-tagged bait bound to Ni-NTA beads; P. falciparum lysate; western blot of the eluates; only the target purified", "note": "Results are given in words; binding and its absence hold for the method and conditions named. Binding seen in cells or lysates may run through a third protein. Binding calls can cover weak binding; strength is not graded here.", "data": [{"binder": "B1", "values": [{"measurement": "binding", "result": "binds"}]}, {"binder": "B2", "values": [{"measurement": "binding", "result": "binds"}]}]}
